The list shows a part of the results. Single values are uncertain, as repeats are few or missing.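 Imaging used 1,536-well plates; nuclei positive for cleaved PARP by antibody were divided by total DNA-stained nuclei to yield the apoptosis fraction. Doses for screening kept most cells viable, and cell lines differ markedly in resting and induced cleaved-PARP levels.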
Test system: MZ2-MEL
Experiment: cleaved PARP positive nuclei fraction relative to DMSO control; melanoma cells; higher = more apoptosis
Conditions: library dose: low library concentration; 72 h

SMILES	cleaved PARP positive nuclei fraction [%]
Cn1nnc2c(C(N)=O)ncn2c1=O [temozolomide] + C[C@@H]1CCN(C(=O)CC#N)C[C@@H]1N(C)c1ncnc2[nH]ccc12 [CP690550] (first compound 2 µM, partner dose 1 µM)	124
Cc1nc(Nc2ncc(C(=O)Nc3c(C)cccc3Cl)s2)cc(N2CCN(CCO)CC2)n1 [dasatanib] + Cn1nnc2c(C(N)=O)ncn2c1=O [temozolomide] (first compound 0.004 µM, partner dose 2 µM)	107
OCc1c[nH]c2ccccc12 [Indole-3-carbinol] + COCC[n+]1c2c(n(Cc3cnccn3)c1C)C(=O)c1ccccc1C2=O [YM155] (first compound 0.8 µM, partner dose 0.0004 µM)	259
Clc1ccc(Nc2nnc(Cc3ccncc3)c3ccccc23)cc1 [vatalanib] + C=CCn1c(=O)c2cnc(Nc3ccc(N4CCN(C)CC4)cc3)nc2n1-c1cccc(C(C)(C)O)n1 [MK1775] (first compound 2 µM, partner dose 0.02 µM)	86.8
C#Cc1cccc(Nc2ncnc3cc(OCCOC)c(OCCOC)cc23)c1 [erlotinib] + COCC[n+]1c2c(n(Cc3cnccn3)c1C)C(=O)c1ccccc1C2=O [YM155] (first compound 0.8 µM, partner dose 0.0004 µM)	390
Cc1nc(Nc2ncc(C(=O)Nc3c(C)cccc3Cl)s2)cc(N2CCN(CCO)CC2)n1 [dasatanib] + Cn1c(Nc2ccc(C(F)(F)F)cc2)nc2cc(Oc3ccnc(-c4ncc(C(F)(F)F)[nH]4)c3)ccc21 [CHIR265] (first compound 0.004 µM, partner dose 0.08 µM)	118
CC(C)(C)c1cnc(CSc2cnc(NC(=O)C3CCNCC3)s2)o1 + Cc1cc(N2CCOCC2)cc2[nH]c(-c3c(NC[C@@H](O)c4cccc(Cl)c4)cc[nH]c3=O)nc12 [BMS536924] (first compound 0.01 µM, partner dose 0.2 µM)	143
OCc1c[nH]c2ccccc12 [Indole-3-carbinol] + Nc1cccc2c1CN(C1CCC(=O)NC1=O)C2=O [lenalidomide] (first compound 0.8 µM, partner dose 1 µM)	74.1
Cn1c(Nc2ccc(C(F)(F)F)cc2)nc2cc(Oc3ccnc(-c4ncc(C(F)(F)F)[nH]4)c3)ccc21 + Nc1cccc2c1CN(C1CCC(=O)NC1=O)C2=O [lenalidomide] (first compound 0.08 µM, partner dose 1 µM)	76.3
Clc1ccc(Nc2nnc(Cc3ccncc3)c3ccccc23)cc1 [vatalanib] + Cc1nc(Nc2ncc(C(=O)Nc3c(C)cccc3Cl)s2)cc(N2CCN(CCO)CC2)n1 [dasatanib] (first compound 2 µM, partner dose 0.004 µM)	163
OCc1c[nH]c2ccccc12 [Indole-3-carbinol] + O=S(=O)(c1ccccc1)N(CC(F)(F)F)c1ccc(C(O)(C(F)(F)F)C(F)(F)F)cc1 [T0901317] (first compound 0.8 µM, partner dose 1.4 µM)	174
C=CCNC1=C2C[C@@H](C)C[C@H](OC)[C@H](O)[C@@H](C)/C=C(\C)[C@H](OC(N)=O)[C@@H](OC)/C=C\C=C(/C)C(=O)NC(=CC1=O)C2=O [Tanespimycin] + Nc1cccc2c1CN(C1CCC(=O)NC1=O)C2=O [lenalidomide] (first compound 0.002 µM, partner dose 1 µM)	125
C=CCNC1=C2C[C@@H](C)C[C@H](OC)[C@H](O)[C@@H](C)/C=C(\C)[C@H](OC(N)=O)[C@@H](OC)/C=C\C=C(/C)C(=O)NC(=CC1=O)C2=O [Tanespimycin] + OCc1c[nH]c2ccccc12 [Indole-3-carbinol] (first compound 0.002 µM, partner dose 0.8 µM)	124
C=CCNC1=C2C[C@@H](C)C[C@H](OC)[C@H](O)[C@@H](C)/C=C(\C)[C@H](OC(N)=O)[C@@H](OC)/C=C\C=C(/C)C(=O)NC(=CC1=O)C2=O [Tanespimycin] + CC(=O)c1c(C)c2cnc(Nc3ccc(N4CCNCC4)cn3)nc2n(C2CCCC2)c1=O [palbociclib] (first compound 0.002 µM, partner dose 0.04 µM)	77
C#Cc1cccc(Nc2ncnc3cc(OCCOC)c(OCCOC)cc23)c1 [erlotinib] + Cn1c(Nc2ccc(C(F)(F)F)cc2)nc2cc(Oc3ccnc(-c4ncc(C(F)(F)F)[nH]4)c3)ccc21 [CHIR265] (first compound 0.8 µM, partner dose 0.08 µM)	50
C#Cc1cccc(Nc2ncnc3cc(OCCOC)c(OCCOC)cc23)c1 [erlotinib] + Cn1nnc2c(C(N)=O)ncn2c1=O [temozolomide] (first compound 0.8 µM, partner dose 2 µM)	98.2
Cn1c(Nc2ccc(C(F)(F)F)cc2)nc2cc(Oc3ccnc(-c4ncc(C(F)(F)F)[nH]4)c3)ccc21 + COCC[n+]1c2c(n(Cc3cnccn3)c1C)C(=O)c1ccccc1C2=O [YM155] (first compound 0.08 µM, partner dose 0.0004 µM)	144
Clc1ccc(Nc2nnc(Cc3ccncc3)c3ccccc23)cc1 [vatalanib] + C#Cc1cccc(Nc2ncnc3cc(OCCOC)c(OCCOC)cc23)c1 [erlotinib] (first compound 2 µM, partner dose 0.8 µM)	78.8
C=CCNC1=C2C[C@@H](C)C[C@H](OC)[C@H](O)[C@@H](C)/C=C(\C)[C@H](OC(N)=O)[C@@H](OC)/C=C\C=C(/C)C(=O)NC(=CC1=O)C2=O [Tanespimycin] + CC(C)CCN1c2nc(Nc3cc(F)c(O)c(F)c3)ncc2N(C)C(=O)C1C [BID1870] (first compound 0.002 µM, partner dose 0.2 µM)	104

Part of the list above, as a markdown table:

| SMILES | cleaved PARP positive nuclei fraction [%] |
| --- | --- |
| C#Cc1cccc(Nc2ncnc3cc(OCCOC)c(OCCOC)cc23)c1 [erlotinib] + Cn1c(Nc2ccc(C(F)(F)F)cc2)nc2cc(Oc3ccnc(-c4ncc(C(F)(F)F)[nH]4)c3)ccc21 [CHIR265] (first compound 0.8 µM, partner dose 0.08 µM) | 50 |
| C#Cc1cccc(Nc2ncnc3cc(OCCOC)c(OCCOC)cc23)c1 [erlotinib] + Cn1nnc2c(C(N)=O)ncn2c1=O [temozolomide] (first compound 0.8 µM, partner dose 2 µM) | 98.2 |
